Source: paper PMC7264094
No constants are given. Whether binding was seen depends on the method and setting. In cells and extracts the contact can be indirect. Some entries that bind do so weakly or less than the wild type.

Amino acid sequences for entries named in this document (tags omitted). Residues count along the entry.
UniProt O35375, residues 21-931: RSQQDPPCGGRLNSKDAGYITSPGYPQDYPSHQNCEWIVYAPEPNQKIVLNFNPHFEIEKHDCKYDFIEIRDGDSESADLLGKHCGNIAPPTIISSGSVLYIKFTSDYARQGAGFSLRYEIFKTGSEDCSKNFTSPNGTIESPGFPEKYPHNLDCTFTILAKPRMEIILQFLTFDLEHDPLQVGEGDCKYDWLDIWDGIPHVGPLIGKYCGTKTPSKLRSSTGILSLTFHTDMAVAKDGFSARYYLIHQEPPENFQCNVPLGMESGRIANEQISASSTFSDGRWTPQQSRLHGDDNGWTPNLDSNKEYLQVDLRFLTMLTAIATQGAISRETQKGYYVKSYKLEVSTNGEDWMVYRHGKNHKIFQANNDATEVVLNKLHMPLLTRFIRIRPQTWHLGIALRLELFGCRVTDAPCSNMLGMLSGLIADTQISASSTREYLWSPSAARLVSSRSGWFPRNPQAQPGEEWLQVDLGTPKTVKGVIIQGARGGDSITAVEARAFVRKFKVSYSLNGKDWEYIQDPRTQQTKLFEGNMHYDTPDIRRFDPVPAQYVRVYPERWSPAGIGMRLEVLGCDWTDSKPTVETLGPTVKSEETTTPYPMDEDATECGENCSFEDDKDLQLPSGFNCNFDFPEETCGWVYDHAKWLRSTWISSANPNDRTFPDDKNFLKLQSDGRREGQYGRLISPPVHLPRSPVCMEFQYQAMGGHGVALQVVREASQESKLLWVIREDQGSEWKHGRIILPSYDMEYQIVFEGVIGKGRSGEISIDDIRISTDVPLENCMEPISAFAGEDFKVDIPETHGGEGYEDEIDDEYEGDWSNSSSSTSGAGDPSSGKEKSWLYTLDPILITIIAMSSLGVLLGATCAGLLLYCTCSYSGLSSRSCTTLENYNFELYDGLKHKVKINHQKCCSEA

Target: Neuropilin-2 (NRP2) (mouse (endogenous in mLMECs)) (UniProt O35375)
Test: co-IP; lysates of control or NRP2 siRNA-transfected mLMECs grown 48 h on fibronectin; 100 μg protein incubated overnight at 4°C with protein-G Dynabeads coupled to an antibody (anti-NRP2; in the reverse direction anti-ITGA5 or anti-Rab11); Western blot

B1: caveolin-1 (protein, UniProt P49817 1-178)
chain: MSGGKYVDSEGHLYTVPIREQGNIYKPNNKAMADEVTEKQVYDAHTKEIDLVNRDPKHLNDDVVKIDFEDVIAEPEGTHSFDGIWKASFTTFTVTKYWFYRLLSTIFGIPMALIWGIYFAILSFLHIWAVVPCIKSFLIEIQCISRVYSIYVHTFCDPLFEAIGKIFSNIRISTQKEI
With B1 the binding was “binds”.
